{"source": "patent US20260014203A1", "about": "“USE OF COMPOSITION INCLUDING MESENCHYMAL STEM CELLS FOR ALLEVIATING MYELOFIBROSIS” (MEDICAL AND PHARMACEUTICAL INDUSTRY TECHNOLOGY AND …, priority 2022, published 2026)", "key": {"IDO gene in UCMSCs": {"test_system": "IDO gene in UCMSCs", "assay": "Priming of UCMSCs with IFN-γ in combination with a supplement, IDO gene mRNA by real-time PCR", "assay_type": "cell-based, human", "conditions": "250 U/mL of IFN-γ in combination with the supplement, 72 hours; compared with comparative group (IFN-γ only)", "description": "In order to determine whether addition of a supplement, which is selected from one of vitamin, steroid, cytokine, double-stranded RNA, and histone deacetylase (HDAC) inhibitor, enhanced the effect of IFN-γ in the priming of UCMSCs, the following experiments were conducted.\nIn brief, UCMSCs culture as described in Item 2 of the General Experimental Materials were divided into 8 groups, namely, a normal control group (NCG), a comparative group (CG) and 6 experimental groups, i.e., experimental group 1 to experimental group 6 (EG1 to EG6), with the number of UCMSCs in each group being 5.8×10^5 cells. Next, the UCMSCs in each group were subjected to priming, in which the UCMSCs in the CG were treated with 250 U/mL of IFN-γ for 72 hours, the UCMSCs in a respective one of the EG1 to EG6 were treated with 250 U/mL of IFN-γ in combination with 1 μM of retinoic acid, 1 μg/mL of dexamethasone, 10 ng/mL of TNF-α, 25 μg/mL of polyinosinic acid-polycytidylic acid, 0.5 mM of valproic acid, and 1 μM of budesonide, respectively, for 72 hours, while the UCMSCs in the NCG were not subjected to any treatment and were left to stand for 72 hours."}, "IDO-expressing UCMSCs": {"test_system": "IDO-expressing UCMSCs", "assay": "Priming of UCMSCs with IFN-γ and budesonide for different time periods, IDO-expressing UCMSCs by flow cytometry", "assay_type": "cell-based, human"}}, "note": "At least one structure is not confirmed: it was looked up by name or label, or the drawing left a doubt."}
{"smiles": "CCCC1O[C@@H]2C[C@H]3[C@@H]4CCC5=CC(=O)C=C[C@]5(C)[C@H]4[C@@H](O)C[C@]3(C)[C@]2(C(=O)CO)O1", "note": "(some centres unmarked) [budesonide]", "values": [{"measurement": "relative mRNA expression level of IDO gene", "setting": "IDO gene in UCMSCs", "value": "higher"}, {"measurement": "percentage of IDO-expressing UCMSCs", "setting": "IDO-expressing UCMSCs; 1 μM budesonide 72 hours compared with 48 hours, with 250 U/mL IFN-γ for 24 or 48 hours", "value": "higher"}, {"measurement": "relative percentage of IDO-expressing UCMSCs", "setting": "IDO-expressing UCMSCs; 250 U/mL IFN-γ (24, 48 or 72 hours) plus 1 μM budesonide (48 or 72 hours), compared with IFN-γ only groups", "value": "higher"}]}
{"smiles": "C[C@@H]1C[C@H]2[C@@H]3CCC4=CC(=O)C=C[C@]4(C)[C@@]3(F)[C@@H](O)C[C@]2(C)[C@@]1(O)C(=O)CO", "note": "[dexamethasone]", "values": [{"measurement": "relative mRNA expression level of IDO gene", "setting": "IDO gene in UCMSCs", "value": "higher"}]}
{"smiles": "CC1=C(/C=C/C(C)=C/C=C/C(C)=C/C(=O)O)C(C)(C)CCC1", "note": "[retinoic acid]", "values": [{"measurement": "relative mRNA expression level of IDO gene", "setting": "IDO gene in UCMSCs", "value": "higher"}]}
